These results are taken from paper PMC7819943, “Rice protein-binding microarrays: a tool to detect cis-acting elements near promoter regions in rice”.

This is one part of the list.

The assay concerns the target T1, OsSMF1 (Oryza sativa, UniProt Q6ZLB0 1-436).
T1 sequence: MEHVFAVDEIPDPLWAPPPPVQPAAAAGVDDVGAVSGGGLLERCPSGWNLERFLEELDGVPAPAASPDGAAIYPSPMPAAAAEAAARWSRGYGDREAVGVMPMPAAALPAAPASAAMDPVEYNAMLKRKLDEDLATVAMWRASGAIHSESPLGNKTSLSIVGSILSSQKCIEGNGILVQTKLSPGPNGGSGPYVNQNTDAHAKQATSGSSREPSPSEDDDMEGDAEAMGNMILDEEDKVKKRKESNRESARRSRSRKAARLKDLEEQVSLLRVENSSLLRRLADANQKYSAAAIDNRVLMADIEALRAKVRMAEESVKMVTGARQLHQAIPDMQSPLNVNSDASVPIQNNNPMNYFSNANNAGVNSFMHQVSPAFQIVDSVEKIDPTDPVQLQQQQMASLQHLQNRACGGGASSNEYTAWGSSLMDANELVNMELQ
As to the kind of experiment: protein-binding microarray (RPBM); PBS, 2% BSA, 51.3 ng/ul salmon testes DNA, 50 uM zinc acetate, 200 nM TF, 25 C, 1 h; high values mean tight binding. As to conditions: protein: recombinant; tags: N-terminal polyhistidine and DsRed monomer fusion (pET32a); chain copies: 2; label: CyDye5-dUTP incorporated in the synthesized complementary strand; 3' TTTTT single-stranded linker to array surface; dsDNA, one strand shown. A digest of the protocol:
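The binding signal for each feature is its fluorescence intensity in arbitrary units. An Axon 4000B scanner was used to read a custom Agilent array that had been made double-stranded with Cy5-dUTP primer extension, blocked with 2% BSA, incubated at 25 °C for 1 h with 200 nM protein in PBS, 2% BSA, salmon testes DNA and 50 µM zinc acetate, and washed. The protein was an N-terminal polyhistidine–DsRed transcription factor fusion from E. coli BL21-CodonPlus, purified on Ni–NTA.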
On to “GTATACTCTGCTGATGTGTTTATGTGTTTAAGGTCGTTGACGGAGTCACCTAGTGCAG”, for which the binding signal is 8700 fluorescence intensity (a.u.). In the case of “AGGAAGGAAGGAAGCAAAATGCTGACGTGTACATAAACCGCGGAGTCACCTAGTGCAG” it was 16000 fluorescence intensity (a.u.); in that of “ATGTTTATCATGTGTTCAGGGTGATGTGGACGTTGTATGTCGGAGTCACCTAGTGCAG”, 9250 fluorescence intensity (a.u.); in that of “AAGGAGGGGATATGCATGTGTATGCCTTTGTAAGTTTATCCGGAGTCACCTAGTGCAG”, 30600 fluorescence intensity (a.u.). In the case of “CCTTAGGCTACGTTGGCTTTTGCATTTTGGCGTGGATTTTCGGAGTCACCTAGTGCAG” it was 14400 fluorescence intensity (a.u.); in that of “AGAGTGTGTATACGATCAGCCCCATCAAGTAGTTTTCTCTCGGAGTCACCTAGTGCAG”, 3240 fluorescence intensity (a.u.); in that of “ATAAAAGAAAACACGTAACTAGTTAATGTATATTCGTAGTCGGAGTCACCTAGTGCAG”, 3280 fluorescence intensity (a.u.). In the case of “CAACCAAGCAAGCGGCAGCAGAGCGCGAGTCATGCGACCCCGGAGTCACCTAGTGCAG” it was 3180 fluorescence intensity (a.u.); in that of “GCACAATGATGACAACAGACAGTTTCCCACAGAAGATCCACGGAGTCACCTAGTGCAG”, 3300 fluorescence intensity (a.u.); in that of “TTGGCTGATCTGTTCACGCTGACGCAACAGACGCGACGCGCGGAGTCACCTAGTGCAG”, 10200 fluorescence intensity (a.u.).

For “CACTACTTATCCAATCACAACCCTACATCACTCACTTCTACGGAGTCACCTAGTGCAG”, the binding signal was 3180 fluorescence intensity (a.u.).

Consider “CGCGCGTCTCGACTCCGTCCCAATCGATCGATCGATCGCGCGGAGTCACCTAGTGCAG”, for which the binding signal was 12800 fluorescence intensity (a.u.). In the case of “TTCCTACGTAGTCGCTATGACGGTGTACTACTTTTATATACGGAGTCACCTAGTGCAG” it was 3940 fluorescence intensity (a.u.); in that of “TACCGGCAGCTGCCTCTGACTCGTCTCCTCGTTGCTCCTCCGGAGTCACCTAGTGCAG”, 5020 fluorescence intensity (a.u.).

With “AATGAATTATACAAAACCAGAACTTTCTGATATTGAATTGCGGAGTCACCTAGTGCAG”, the binding signal is 3230 fluorescence intensity (a.u.). In the case of “CTAGCTTCGAGAGGCCGAGTTGCTCCACGTGGAGAGAGAGCGGAGTCACCTAGTGCAG” it was 6570 fluorescence intensity (a.u.); in that of “CCATGTCGGCGCCGCCGCCGTCCCCGTCCCAGTCGCCGCCCGGAGTCACCTAGTGCAG”, 3640 fluorescence intensity (a.u.). As to “ATTGTACTCCTACGTATCGAAGTCATGCGAAACTCATGCACGGAGTCACCTAGTGCAG”, the binding signal is 3220 fluorescence intensity (a.u.). As for “ATTTCCTGCAAGAAGGATGACTGAGTCAACAGGCGACCGGCGGAGTCACCTAGTGCAG”, the binding signal is 25600 fluorescence intensity (a.u.). Regarding “TAAGTCACAAGTGTTCCCACGTGTAGGCATGTTTCACGCTCGGAGTCACCTAGTGCAG”, the binding signal was 5720 fluorescence intensity (a.u.). To “CGCCAAATCGTGTGGCGCTGAACTTAGACACCTCAGCGTCCGGAGTCACCTAGTGCAG” belongs 21000 fluorescence intensity (a.u.). Turning to “TCTCGCCTCGTCGTCACCACGTCGGCTTCAGCGACATTTCCGGAGTCACCTAGTGCAG”, the binding signal was 7340 fluorescence intensity (a.u.). To “ATAGATAATAGAAGAACAAAATGACCAGTTGATAAACCCTCGGAGTCACCTAGTGCAG” belongs 3250 fluorescence intensity (a.u.); to “CGTGCCGCGTCCGCGTGCGCTCGCAGGACGTGTCCAGGTGCGGAGTCACCTAGTGCAG”, 6010 fluorescence intensity (a.u.).

For “CAAGTCGACTAGAAATTGTAAAATCAAATTAAAATTCTTTCGGAGTCACCTAGTGCAG”, the binding signal is 3730 fluorescence intensity (a.u.). To “GAAAACGATAGTTTGGTGACGTAAACCTGCGGCTGAGGCCCGGAGTCACCTAGTGCAG” belongs 5050 fluorescence intensity (a.u.); to “ATTGGAGTTAGTGGTGGGCTATACTATTAGACGTCCATTGCGGAGTCACCTAGTGCAG”, 3270 fluorescence intensity (a.u.); to “CTCTCGTCGGTTACATTACAATTTACAGGAGCAAGCAGCTCGGAGTCACCTAGTGCAG”, 16300 fluorescence intensity (a.u.). In the case of “AAAGATGAGTTGGCCGATTCAGACACCTCCTATGTCCATACGGAGTCACCTAGTGCAG” it was 4690 fluorescence intensity (a.u.); in that of “ATATGGATGATGGTTTTGTTGATGTGGCATCCTAGTCAGACGGAGTCACCTAGTGCAG”, 14000 fluorescence intensity (a.u.); in that of “TTGAATATGAGTGAGTAGGCAATAGGCACTTTTGTTTTGGCGGAGTCACCTAGTGCAG”, 4220 fluorescence intensity (a.u.). With “TTTGATACTACTGCCTGTTTTACAGATCACCAACTTCCTGCGGAGTCACCTAGTGCAG”, the binding signal is 4670 fluorescence intensity (a.u.). To “GCAGTATTTGTCACTTTTCCTGACCGACCACTTGCGTTTGCGGAGTCACCTAGTGCAG” belongs 3530 fluorescence intensity (a.u.).

As to “GAAACGACTGCATCCGTCCACGCGTGCGGCTCGTGACGACCGGAGTCACCTAGTGCAG”, the binding signal was 5250 fluorescence intensity (a.u.). To “CTGAGTAAAATATATGTACTTTCTTTTGCCGAATTACCCTCGGAGTCACCTAGTGCAG” belongs 3220 fluorescence intensity (a.u.); to “ACCTCACGCTCGACGGCAACGCCACCGTCATGCCAGATGGCGGAGTCACCTAGTGCAG”, 5190 fluorescence intensity (a.u.). In the case of “TGCAGTATTGGTGAGTTGTTCTCTTTAACGTCTGAGCTGACGGAGTCACCTAGTGCAG” it was 4760 fluorescence intensity (a.u.); in that of “TCTCTCCCTTCTTCTTCCGCCACCTCCCTCTCTCTCCCTTCGGAGTCACCTAGTGCAG”, 4090 fluorescence intensity (a.u.). In the case of “GCTGTTCATTCTGCTGTGTGTTTCGTGGCACAGCACATTTCGGAGTCACCTAGTGCAG” it was 6090 fluorescence intensity (a.u.); in that of “GAGCCTGCTGTCTTGTTACTGTTAATGATGTTTTAGTTTACGGAGTCACCTAGTGCAG”, 3320 fluorescence intensity (a.u.); in that of “GTCACCTAAGTGCCATGTCAACGCCACGTGGAAAGAAGACCGGAGTCACCTAGTGCAG”, 25100 fluorescence intensity (a.u.). Turning to “TCAAAGATGACCTTATATCGGTGACGAGTCATCCCTGGTACGGAGTCACCTAGTGCAG”, the binding signal was 5290 fluorescence intensity (a.u.).
